The results in this text go back to article PMC11858170.

The chains behind the UniProt entries cited, without tags or fusion partners.
UniProt P52332: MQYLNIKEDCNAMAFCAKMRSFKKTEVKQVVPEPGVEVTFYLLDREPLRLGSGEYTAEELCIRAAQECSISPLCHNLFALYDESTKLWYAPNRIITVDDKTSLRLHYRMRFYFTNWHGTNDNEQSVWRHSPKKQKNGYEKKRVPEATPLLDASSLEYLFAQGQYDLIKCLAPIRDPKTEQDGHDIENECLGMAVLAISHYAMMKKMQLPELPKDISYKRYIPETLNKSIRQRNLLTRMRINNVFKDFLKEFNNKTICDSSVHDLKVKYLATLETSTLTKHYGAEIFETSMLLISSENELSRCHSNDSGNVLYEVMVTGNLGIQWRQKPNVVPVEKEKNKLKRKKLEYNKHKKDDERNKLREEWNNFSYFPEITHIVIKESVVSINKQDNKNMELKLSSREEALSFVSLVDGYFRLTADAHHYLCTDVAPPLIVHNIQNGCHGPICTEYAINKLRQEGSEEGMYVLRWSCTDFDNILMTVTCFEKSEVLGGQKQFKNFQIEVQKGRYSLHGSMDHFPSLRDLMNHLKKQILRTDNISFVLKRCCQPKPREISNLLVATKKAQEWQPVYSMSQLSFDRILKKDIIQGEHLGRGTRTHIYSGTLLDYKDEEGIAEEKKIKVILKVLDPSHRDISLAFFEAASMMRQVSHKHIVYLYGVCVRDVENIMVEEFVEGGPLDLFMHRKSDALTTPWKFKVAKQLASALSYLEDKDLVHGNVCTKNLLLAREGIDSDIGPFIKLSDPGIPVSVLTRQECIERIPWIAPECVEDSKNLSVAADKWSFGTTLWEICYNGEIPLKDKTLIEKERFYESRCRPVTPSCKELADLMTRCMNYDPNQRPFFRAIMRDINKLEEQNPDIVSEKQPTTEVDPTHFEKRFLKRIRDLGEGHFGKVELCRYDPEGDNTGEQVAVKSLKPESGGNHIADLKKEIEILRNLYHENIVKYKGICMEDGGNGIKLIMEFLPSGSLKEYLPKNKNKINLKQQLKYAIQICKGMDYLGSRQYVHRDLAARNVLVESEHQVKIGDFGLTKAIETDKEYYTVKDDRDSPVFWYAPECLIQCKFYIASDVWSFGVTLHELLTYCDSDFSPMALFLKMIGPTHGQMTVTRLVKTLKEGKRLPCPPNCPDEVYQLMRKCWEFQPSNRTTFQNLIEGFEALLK
UniProt P25911: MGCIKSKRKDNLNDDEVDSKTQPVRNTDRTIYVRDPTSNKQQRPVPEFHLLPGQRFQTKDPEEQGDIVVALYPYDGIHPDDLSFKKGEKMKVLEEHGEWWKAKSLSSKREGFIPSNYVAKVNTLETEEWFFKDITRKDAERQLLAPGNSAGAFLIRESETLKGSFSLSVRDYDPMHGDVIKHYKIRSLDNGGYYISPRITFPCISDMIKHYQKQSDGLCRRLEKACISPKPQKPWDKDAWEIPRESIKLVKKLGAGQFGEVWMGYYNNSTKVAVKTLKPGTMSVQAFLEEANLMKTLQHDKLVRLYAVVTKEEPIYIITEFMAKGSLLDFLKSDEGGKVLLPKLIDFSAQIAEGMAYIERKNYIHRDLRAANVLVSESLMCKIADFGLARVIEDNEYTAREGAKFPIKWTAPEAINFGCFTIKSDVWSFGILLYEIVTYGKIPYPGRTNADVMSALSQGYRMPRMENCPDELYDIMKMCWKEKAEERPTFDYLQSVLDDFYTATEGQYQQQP

Test [1] has as its target T1, interleukin-4 receptor (IL-4 receptor α), mouse (mouse (endogenous in BALB/C tissue)) (UniProt P16382).
T1 sequence: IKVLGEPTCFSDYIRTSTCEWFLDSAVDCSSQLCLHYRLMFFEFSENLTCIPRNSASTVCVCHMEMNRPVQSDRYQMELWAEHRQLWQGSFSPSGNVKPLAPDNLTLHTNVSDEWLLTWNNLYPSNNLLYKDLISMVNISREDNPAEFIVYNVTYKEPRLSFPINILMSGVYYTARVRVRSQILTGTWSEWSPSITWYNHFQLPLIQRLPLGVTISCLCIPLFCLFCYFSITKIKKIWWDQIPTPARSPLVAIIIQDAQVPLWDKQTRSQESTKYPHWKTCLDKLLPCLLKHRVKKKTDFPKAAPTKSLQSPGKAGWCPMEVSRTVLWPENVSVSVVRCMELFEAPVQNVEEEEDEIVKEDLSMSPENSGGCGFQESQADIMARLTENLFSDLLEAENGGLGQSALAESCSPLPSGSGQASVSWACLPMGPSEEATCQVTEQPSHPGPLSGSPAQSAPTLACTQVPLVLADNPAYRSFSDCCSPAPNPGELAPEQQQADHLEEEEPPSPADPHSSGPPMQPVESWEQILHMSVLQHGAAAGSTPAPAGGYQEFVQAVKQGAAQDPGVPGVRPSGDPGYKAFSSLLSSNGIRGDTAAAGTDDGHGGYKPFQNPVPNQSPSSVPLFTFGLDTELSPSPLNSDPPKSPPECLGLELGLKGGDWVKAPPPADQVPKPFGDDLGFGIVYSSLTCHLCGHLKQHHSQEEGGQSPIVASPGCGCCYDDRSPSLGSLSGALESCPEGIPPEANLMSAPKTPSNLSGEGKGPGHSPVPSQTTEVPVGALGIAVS
The experiment in a line: co-IP; ear tissue lysates (RIPA buffer) of BALB/C mice in passive cutaneous anaphylaxis (DNP-specific IgE, DNP-HSA), without or with Roc-A or chemical 1536801; immunoprecipitation and immunoblot; which protein was precipitated is not told.

The target in test [2] is T2, FcεRI (detected with an antibody to FcεRIβ), mouse (mouse (endogenous in BALB/C tissue)) (UniProt P20490).
T2 sequence: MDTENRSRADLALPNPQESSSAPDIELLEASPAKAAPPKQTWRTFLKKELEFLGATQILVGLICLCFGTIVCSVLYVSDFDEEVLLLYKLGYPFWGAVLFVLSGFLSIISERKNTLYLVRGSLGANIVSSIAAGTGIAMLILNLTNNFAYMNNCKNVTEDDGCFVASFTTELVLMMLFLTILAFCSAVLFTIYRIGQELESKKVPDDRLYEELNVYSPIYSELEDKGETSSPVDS
Nature of the test: co-IP; lung tissue lysates (RIPA buffer) of BALB/C mice in passive systemic anaphylaxis (DNP-specific IgE, DNP-HSA), without or with Roc-A; immunoprecipitation and immunoblot; which protein was precipitated is not told.

Test [3] deals with T2, FcεRI (detected with an antibody to FcεRIβ), mouse (mouse (endogenous in BALB/C tissue)). The experiment in a line: co-IP; ear tissue lysates (RIPA buffer) of BALB/C mice in passive cutaneous anaphylaxis (DNP-specific IgE, DNP-HSA), without or with Roc-A or chemical 1536801; immunoprecipitation and immunoblot; which protein was precipitated is not told. In general terms: In western blotting, separated proteins are transferred to a membrane and probed.

Results are given in words; binding and its absence hold for the method and conditions named. Binding seen in cells or lysates may run through a third protein. Some results given as binding are weak or reduced against the parent protein; the word gives no strength.

For the substance “Janus kinase 1 (JAK1), mouse (from UniProt P52332 1-1153) (enzyme)”, the binding result in test [1] is on record as “binds”.
In the case of “LYN, mouse (from UniProt P25911 1-512) (enzyme)”, the binding result in test [2] and in test [3] was “binds” throughout.
